Consider one substance from article PMC11530598.

Chains of the proteins cited; added tags and fusions are not shown. Residues count along the entry.
sfGFP-MAP1B HC^1-532 (P14873, residues 1-532): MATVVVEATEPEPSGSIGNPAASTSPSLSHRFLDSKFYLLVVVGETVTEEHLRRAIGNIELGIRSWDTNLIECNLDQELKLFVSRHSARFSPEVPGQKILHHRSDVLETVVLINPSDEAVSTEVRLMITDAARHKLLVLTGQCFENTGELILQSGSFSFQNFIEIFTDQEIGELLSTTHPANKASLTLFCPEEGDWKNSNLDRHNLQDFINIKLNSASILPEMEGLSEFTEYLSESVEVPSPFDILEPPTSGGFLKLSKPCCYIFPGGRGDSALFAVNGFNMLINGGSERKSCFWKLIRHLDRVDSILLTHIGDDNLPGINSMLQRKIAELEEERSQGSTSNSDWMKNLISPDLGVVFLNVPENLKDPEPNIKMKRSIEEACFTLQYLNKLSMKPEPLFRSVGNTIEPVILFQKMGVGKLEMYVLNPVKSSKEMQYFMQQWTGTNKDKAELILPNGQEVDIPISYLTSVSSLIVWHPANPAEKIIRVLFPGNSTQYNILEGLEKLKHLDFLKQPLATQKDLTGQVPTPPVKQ
MAP1B LC-mScarlet (P14873, residues 2203-2464): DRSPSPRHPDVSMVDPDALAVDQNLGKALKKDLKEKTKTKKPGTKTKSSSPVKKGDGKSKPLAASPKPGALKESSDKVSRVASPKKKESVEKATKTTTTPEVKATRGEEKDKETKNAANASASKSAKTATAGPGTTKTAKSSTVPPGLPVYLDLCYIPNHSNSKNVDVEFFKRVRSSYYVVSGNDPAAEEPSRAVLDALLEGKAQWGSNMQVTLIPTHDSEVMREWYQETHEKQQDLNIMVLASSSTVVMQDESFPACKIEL

These are yes or no findings as the source states them, for the method shown.

This experiment deals with MAP1B LC-mScarlet (mouse) (UniProt P14873). Briefly: TIRF microscopy recruitment assay; one MAP1B chain on microtubules, intensity of the other chain with and without it: LC-mScarlet on subtilisin-digested microtubules with or without sfGFP-HC^1-1500; sfGFP-HC^1-532 on microtubules with or without LC-mScarlet; both purified.

Regarding “sfGFP-MAP1B HC^1-532 (from UniProt P14873 1-532) (domain or fragment)”, the binding entry is given as “no binding”.
